# Reference: PMC7819943, “Rice protein-binding microarrays: a tool to detect cis-acting elements near promoter regions in rice”
# This is one part of the list.
# Molecular target: T1, OsSMF1 (Oryza sativa, UniProt Q6ZLB0 1-436)
# T1 sequence: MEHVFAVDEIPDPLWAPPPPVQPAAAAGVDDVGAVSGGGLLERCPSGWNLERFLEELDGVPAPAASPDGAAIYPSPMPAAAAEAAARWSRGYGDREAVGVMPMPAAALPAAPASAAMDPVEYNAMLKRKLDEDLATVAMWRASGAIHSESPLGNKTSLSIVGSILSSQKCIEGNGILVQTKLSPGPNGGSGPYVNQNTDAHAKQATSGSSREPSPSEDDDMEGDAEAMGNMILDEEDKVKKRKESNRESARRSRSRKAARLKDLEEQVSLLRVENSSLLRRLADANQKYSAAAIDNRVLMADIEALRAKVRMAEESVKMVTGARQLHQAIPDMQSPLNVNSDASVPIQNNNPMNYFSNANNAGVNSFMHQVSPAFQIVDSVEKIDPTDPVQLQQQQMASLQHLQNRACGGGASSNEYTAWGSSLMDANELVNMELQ
# Assay: protein-binding microarray (RPBM); PBS, 2% BSA, 51.3 ng/ul salmon testes DNA, 50 uM zinc acetate, 200 nM TF, 25 C, 1 h; high values mean tight binding
# Conditions: protein: recombinant; tags: N-terminal polyhistidine and DsRed monomer fusion (pET32a); chain copies: 2; label: CyDye5-dUTP incorporated in the synthesized complementary strand; 3' TTTTT single-stranded linker to array surface; dsDNA, one strand shown
# Procedure, shortened: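 The binding signal for each feature is its fluorescence intensity in arbitrary units. An Axon 4000B scanner was used to read a custom Agilent array that had been made double-stranded with Cy5-dUTP primer extension, blocked with 2% BSA, incubated at 25 °C for 1 h with 200 nM protein in PBS, 2% BSA, salmon testes DNA and 50 µM zinc acetate, and washed. The protein was an N-terminal polyhistidine–DsRed transcription factor fusion from E. coli BL21-CodonPlus, purified on Ni–NTA.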
row,Sequence,binding signal
1,ACTACATATGTAATTTTATAACTTACATATGTAATTTTAGCGGAGTCACCTAGTGCAG,17400 fluorescence intensity (a.u.)
2,CATCTTGTAACAATTTGACCGGTGACCTCGTGGCAAGCAACGGAGTCACCTAGTGCAG,3690 fluorescence intensity (a.u.)
3,CCTTAGACCTTCTGGATTACATCGTAAGCTGGCTTCTCCTCGGAGTCACCTAGTGCAG,3490 fluorescence intensity (a.u.)
4,CGTCAAACAGAAAATATGGAGAGAGAACTAATCGGGGTAACGGAGTCACCTAGTGCAG,4520 fluorescence intensity (a.u.)
5,CGGTTTGCCGGCGGCCGACGTGGCCGGCCTCGCAGCGGCACGGAGTCACCTAGTGCAG,7440 fluorescence intensity (a.u.)
6,TCTGGATCGAATTGCCACGTAAACGCCACGTCAATGCCACCGGAGTCACCTAGTGCAG,25100 fluorescence intensity (a.u.)
7,AAACGTCGCCCGGTCCGACGTGGGAGAAGCATGGACCGTCCGGAGTCACCTAGTGCAG,4760 fluorescence intensity (a.u.)
8,GTGCGCTTGCGGTTGCCGCTCCAGTGAGCTGGACGACGTCCGGAGTCACCTAGTGCAG,4820 fluorescence intensity (a.u.)
9,TTGGTGCCCTTTTGACTCTGAAGACGACAATGATTTTCCTCGGAGTCACCTAGTGCAG,18200 fluorescence intensity (a.u.)
10,GGTCCCACACGTCATCGTCACGTACTCCAGGCTCTAGCCTCGGAGTCACCTAGTGCAG,13400 fluorescence intensity (a.u.)
11,CGCCTGCCTGCGTCACCACCACTCCACTCGTCGCTGCCCCCGGAGTCACCTAGTGCAG,14400 fluorescence intensity (a.u.)
12,CATCTGCTTTCTAGTTTCTTCCTGAAGTTCTGCGTCATAACGGAGTCACCTAGTGCAG,3470 fluorescence intensity (a.u.)
13,AACTTGCTCTAATCCTATTCTGACGTGGCCACCCGCTCCGCGGAGTCACCTAGTGCAG,26200 fluorescence intensity (a.u.)
14,GGACCTTCACTGCTGACAAGTGAAATGAGTCATGGGTGCTCGGAGTCACCTAGTGCAG,8880 fluorescence intensity (a.u.)
15,ACGACGTCGCCGACTACATCCGCTTCCGCGCCGTGTGCCGCGGAGTCACCTAGTGCAG,3470 fluorescence intensity (a.u.)
16,TCGTCCATGGCCGCAGATCTTTCGTCCGCGCCGTCAGCGGCGGAGTCACCTAGTGCAG,4180 fluorescence intensity (a.u.)
17,AACCTCAATGTTCCACGTCATCATTAATTTACAGCCGTTGCGGAGTCACCTAGTGCAG,39400 fluorescence intensity (a.u.)
18,AGACAAATGTTTCACACGTGTATGATCGTTCTAGAATTGTCGGAGTCACCTAGTGCAG,5530 fluorescence intensity (a.u.)
19,GAAGGAGAGGAAGAGGAAGAGGGGATAAAAGTTTTGCTTGCGGAGTCACCTAGTGCAG,28900 fluorescence intensity (a.u.)
20,AAGAGCGTTTAAACAAGCTGTGGAGTCAGCAGATAGATTACGGAGTCACCTAGTGCAG,3940 fluorescence intensity (a.u.)
21,TAGCAACAAACTTGATGCATACATCATCTCCACTATTTTCCGGAGTCACCTAGTGCAG,4380 fluorescence intensity (a.u.)

# Fetched one by one from the entries so far, three records:
row,Sequence,binding signal
18,AGACAAATGTTTCACACGTGTATGATCGTTCTAGAATTGTCGGAGTCACCTAGTGCAG,5530 fluorescence intensity (a.u.)
7,AAACGTCGCCCGGTCCGACGTGGGAGAAGCATGGACCGTCCGGAGTCACCTAGTGCAG,4760 fluorescence intensity (a.u.)
16,TCGTCCATGGCCGCAGATCTTTCGTCCGCGCCGTCAGCGGCGGAGTCACCTAGTGCAG,4180 fluorescence intensity (a.u.)

# The list goes on.

row,Sequence,binding signal
1,AAACGAATTGTCCTTACTGAATGCCCACTCACTACATTTTCGGAGTCACCTAGTGCAG,3470 fluorescence intensity (a.u.)
2,AGGCAACACGACAGCACATCGCATCGTACGTACGTCGTTCCGGAGTCACCTAGTGCAG,3730 fluorescence intensity (a.u.)
3,CATTTCCTCATCCCCTTCTCTCTGTAAAGGACGAGCTGTGCGGAGTCACCTAGTGCAG,3490 fluorescence intensity (a.u.)
4,GGCGGCGTCATCTGCGCCGCGTCCACACACATGTACGTCGCGGAGTCACCTAGTGCAG,3850 fluorescence intensity (a.u.)
5,GCCCAAGCGAGGACTTAACGATGTTGGCCACCGCCTGGCACGGAGTCACCTAGTGCAG,3170 fluorescence intensity (a.u.)
6,CGTTTGGACGGTTAGTGCGTCGCGTCGCCGCCCACTCGTCCGGAGTCACCTAGTGCAG,4130 fluorescence intensity (a.u.)
7,GAACACGGCCCGCCACGCTGGCACCAGACGGTTTTGATGGCGGAGTCACCTAGTGCAG,7330 fluorescence intensity (a.u.)
8,CACCAAGACGGAGTCAGCAACTGAGAATTCAGGCCCCGTTCGGAGTCACCTAGTGCAG,4780 fluorescence intensity (a.u.)
9,TGGCCGAGAGACCAGCTAGGTAGGAGAGCCCGCGTGCTGCCGGAGTCACCTAGTGCAG,15500 fluorescence intensity (a.u.)
10,CTATAAGAAATCCATATGAAGGTGTGACTCATCTAGCTGACGGAGTCACCTAGTGCAG,13200 fluorescence intensity (a.u.)
11,ACTTGGTGGAGCGAATACAGAGGTCGACGTGGTGGTGTAGCGGAGTCACCTAGTGCAG,4420 fluorescence intensity (a.u.)
12,GATGGGATCACCTACCTCCACGCCGCCACCGACAAGGTCCCGGAGTCACCTAGTGCAG,3460 fluorescence intensity (a.u.)
13,GCCGTCCCGAAATGGAAGCGCCTCAAAAGAAAGCATCCCTCGGAGTCACCTAGTGCAG,4620 fluorescence intensity (a.u.)
14,CCTCAGTGCTACGTCAATTGGCGCAGAATATCGTGTCACCCGGAGTCACCTAGTGCAG,5340 fluorescence intensity (a.u.)
15,ACTATTACTACCTCAGTTTTGAAATGTATGACGTTGACTTCGGAGTCACCTAGTGCAG,5730 fluorescence intensity (a.u.)
16,CTACCCTCCACCGGTGAGAGCTCCACGTCTCCAACCAAATCGGAGTCACCTAGTGCAG,4600 fluorescence intensity (a.u.)
17,GCAAAGAAAGCTACTGCACATAGGCAGGGTGTGCAGTCAGCGGAGTCACCTAGTGCAG,3530 fluorescence intensity (a.u.)
18,TGTTCAGGCACAGGTAATGAGGTGGAGTGTGAGCAGCTTGCGGAGTCACCTAGTGCAG,3620 fluorescence intensity (a.u.)
19,AATGGTACTGATTAGATTATCTCTTTTCCTGAATTCTATGCGGAGTCACCTAGTGCAG,5120 fluorescence intensity (a.u.)
20,GGGATGCTCATGGATGGACTGCACTTCATTGGGCTGCGTCCGGAGTCACCTAGTGCAG,18900 fluorescence intensity (a.u.)
21,GATGATGACGACAGTGACGCATTGGAAGATACATTCGCCTCGGAGTCACCTAGTGCAG,5070 fluorescence intensity (a.u.)
